Drawing on the supplement of paper PMC12819154, “High-throughput peptide-centric local stability assay extends protein–ligand identification to membrane proteins, tissues and bacteria” (Nature Structural & Molecular Biology, 2025), this text covers log2 fold change for nine targets.

By UniProt entry, the sequences of proteins in these tests, tags left out. Where a name states a change or a piece, a line headed by the entry shows the natural chain unless it says otherwise.
UniProt Q93008, whole entry: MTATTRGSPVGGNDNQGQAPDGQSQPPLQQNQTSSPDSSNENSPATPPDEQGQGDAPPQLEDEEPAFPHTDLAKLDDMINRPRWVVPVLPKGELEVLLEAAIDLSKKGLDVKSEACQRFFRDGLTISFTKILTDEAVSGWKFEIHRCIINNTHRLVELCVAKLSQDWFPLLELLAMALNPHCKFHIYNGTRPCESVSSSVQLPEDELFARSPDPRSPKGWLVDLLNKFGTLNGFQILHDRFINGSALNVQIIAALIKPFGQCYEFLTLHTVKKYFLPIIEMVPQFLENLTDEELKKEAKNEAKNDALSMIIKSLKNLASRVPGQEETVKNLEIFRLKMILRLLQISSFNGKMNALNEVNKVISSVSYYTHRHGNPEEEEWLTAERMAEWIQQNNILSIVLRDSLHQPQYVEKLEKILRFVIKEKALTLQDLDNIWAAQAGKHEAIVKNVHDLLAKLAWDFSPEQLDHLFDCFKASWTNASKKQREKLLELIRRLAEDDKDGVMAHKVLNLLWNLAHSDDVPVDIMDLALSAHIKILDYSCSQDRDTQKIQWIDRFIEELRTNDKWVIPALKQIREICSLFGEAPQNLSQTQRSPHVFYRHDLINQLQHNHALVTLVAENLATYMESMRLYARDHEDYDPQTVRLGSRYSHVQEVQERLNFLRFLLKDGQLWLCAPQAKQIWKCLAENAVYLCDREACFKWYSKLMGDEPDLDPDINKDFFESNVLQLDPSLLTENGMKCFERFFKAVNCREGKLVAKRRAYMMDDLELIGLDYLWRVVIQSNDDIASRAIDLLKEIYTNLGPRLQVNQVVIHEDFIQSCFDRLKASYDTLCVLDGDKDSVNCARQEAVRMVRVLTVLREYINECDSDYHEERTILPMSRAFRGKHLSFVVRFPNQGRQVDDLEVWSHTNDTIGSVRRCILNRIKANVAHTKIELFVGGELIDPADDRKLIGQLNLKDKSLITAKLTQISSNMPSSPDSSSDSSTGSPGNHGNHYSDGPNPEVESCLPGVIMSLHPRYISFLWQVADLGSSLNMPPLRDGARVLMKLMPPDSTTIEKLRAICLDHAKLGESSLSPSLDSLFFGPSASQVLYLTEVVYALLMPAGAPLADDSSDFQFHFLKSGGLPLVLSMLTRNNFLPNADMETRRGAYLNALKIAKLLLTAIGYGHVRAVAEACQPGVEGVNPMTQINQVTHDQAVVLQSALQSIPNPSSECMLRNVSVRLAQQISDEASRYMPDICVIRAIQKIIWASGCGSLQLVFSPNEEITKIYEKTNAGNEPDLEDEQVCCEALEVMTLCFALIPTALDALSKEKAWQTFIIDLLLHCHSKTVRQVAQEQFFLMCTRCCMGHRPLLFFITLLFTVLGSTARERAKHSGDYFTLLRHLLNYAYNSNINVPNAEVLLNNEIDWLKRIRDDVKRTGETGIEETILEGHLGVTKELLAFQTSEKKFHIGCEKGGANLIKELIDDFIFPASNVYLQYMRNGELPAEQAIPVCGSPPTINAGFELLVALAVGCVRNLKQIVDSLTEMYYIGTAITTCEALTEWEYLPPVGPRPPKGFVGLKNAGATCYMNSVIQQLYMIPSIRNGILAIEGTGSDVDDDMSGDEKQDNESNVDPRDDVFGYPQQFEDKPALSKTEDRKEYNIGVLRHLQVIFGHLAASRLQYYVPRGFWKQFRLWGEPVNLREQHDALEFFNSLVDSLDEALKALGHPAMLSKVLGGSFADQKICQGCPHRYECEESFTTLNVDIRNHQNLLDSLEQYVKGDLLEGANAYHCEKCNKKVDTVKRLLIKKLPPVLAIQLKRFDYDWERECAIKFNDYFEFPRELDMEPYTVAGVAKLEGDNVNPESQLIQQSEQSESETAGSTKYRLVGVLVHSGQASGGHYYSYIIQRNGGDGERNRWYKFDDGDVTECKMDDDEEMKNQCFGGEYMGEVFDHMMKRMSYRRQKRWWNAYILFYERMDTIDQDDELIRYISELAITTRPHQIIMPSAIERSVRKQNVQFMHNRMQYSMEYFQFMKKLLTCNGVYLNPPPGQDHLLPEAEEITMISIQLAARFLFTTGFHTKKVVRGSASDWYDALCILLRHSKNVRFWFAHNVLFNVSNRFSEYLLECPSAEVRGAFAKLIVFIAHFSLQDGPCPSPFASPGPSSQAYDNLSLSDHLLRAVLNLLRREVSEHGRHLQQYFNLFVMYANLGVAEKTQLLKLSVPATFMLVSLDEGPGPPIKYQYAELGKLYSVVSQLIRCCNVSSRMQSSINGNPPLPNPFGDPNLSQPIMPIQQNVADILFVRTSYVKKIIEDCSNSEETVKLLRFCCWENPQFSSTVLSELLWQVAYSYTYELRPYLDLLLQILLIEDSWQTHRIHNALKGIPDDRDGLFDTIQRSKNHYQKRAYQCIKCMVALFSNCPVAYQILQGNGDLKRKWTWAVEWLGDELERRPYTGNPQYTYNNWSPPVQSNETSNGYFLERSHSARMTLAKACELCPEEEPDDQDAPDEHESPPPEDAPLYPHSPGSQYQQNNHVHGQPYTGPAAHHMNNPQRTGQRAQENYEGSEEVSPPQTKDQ
UniProt Q96B97, whole entry: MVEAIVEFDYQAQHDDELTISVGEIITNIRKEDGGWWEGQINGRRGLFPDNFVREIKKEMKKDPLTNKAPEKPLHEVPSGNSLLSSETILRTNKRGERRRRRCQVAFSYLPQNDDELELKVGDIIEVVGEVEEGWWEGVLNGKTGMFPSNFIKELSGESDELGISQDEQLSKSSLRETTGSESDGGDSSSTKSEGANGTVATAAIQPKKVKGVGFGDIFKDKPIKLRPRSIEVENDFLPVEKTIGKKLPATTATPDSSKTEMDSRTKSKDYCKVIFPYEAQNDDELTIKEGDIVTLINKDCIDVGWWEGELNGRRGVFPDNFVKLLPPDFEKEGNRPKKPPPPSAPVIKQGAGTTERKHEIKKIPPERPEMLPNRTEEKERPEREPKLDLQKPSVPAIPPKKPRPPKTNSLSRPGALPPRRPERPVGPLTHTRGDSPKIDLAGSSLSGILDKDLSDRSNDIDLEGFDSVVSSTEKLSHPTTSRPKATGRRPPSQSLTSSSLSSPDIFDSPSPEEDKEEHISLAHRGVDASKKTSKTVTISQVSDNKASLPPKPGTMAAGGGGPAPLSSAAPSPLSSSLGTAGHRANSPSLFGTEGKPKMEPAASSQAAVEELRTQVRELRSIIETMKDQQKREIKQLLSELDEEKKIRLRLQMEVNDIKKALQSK
UniProt Q96EK6: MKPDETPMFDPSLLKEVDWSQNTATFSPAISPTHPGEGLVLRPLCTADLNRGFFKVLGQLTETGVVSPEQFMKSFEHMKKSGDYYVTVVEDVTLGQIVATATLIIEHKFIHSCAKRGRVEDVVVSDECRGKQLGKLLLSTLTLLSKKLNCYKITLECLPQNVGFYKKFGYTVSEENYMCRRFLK
UniProt Q96AV8: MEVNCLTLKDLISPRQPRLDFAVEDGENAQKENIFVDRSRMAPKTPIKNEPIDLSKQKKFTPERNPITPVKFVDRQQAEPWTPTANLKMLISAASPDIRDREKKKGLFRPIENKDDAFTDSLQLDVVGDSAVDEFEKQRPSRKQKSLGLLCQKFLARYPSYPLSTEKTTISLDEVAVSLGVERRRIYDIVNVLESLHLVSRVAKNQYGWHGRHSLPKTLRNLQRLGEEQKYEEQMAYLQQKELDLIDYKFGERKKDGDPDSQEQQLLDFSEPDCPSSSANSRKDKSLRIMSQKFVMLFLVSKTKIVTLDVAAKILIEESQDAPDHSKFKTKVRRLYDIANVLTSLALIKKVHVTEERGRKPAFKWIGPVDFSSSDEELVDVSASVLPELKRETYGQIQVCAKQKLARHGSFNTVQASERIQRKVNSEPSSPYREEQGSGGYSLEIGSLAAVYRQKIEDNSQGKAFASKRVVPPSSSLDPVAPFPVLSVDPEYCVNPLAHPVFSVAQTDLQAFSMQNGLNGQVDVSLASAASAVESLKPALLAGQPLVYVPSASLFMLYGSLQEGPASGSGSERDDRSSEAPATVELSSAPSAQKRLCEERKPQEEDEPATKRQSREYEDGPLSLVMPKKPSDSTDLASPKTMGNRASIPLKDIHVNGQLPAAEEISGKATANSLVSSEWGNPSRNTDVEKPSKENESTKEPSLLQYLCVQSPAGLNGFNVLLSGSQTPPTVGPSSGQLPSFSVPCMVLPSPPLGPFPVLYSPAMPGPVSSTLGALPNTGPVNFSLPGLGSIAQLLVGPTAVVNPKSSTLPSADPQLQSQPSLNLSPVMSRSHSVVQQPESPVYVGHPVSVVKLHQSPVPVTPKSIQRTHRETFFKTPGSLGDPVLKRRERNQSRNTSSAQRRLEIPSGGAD
UniProt Q969H0, whole entry: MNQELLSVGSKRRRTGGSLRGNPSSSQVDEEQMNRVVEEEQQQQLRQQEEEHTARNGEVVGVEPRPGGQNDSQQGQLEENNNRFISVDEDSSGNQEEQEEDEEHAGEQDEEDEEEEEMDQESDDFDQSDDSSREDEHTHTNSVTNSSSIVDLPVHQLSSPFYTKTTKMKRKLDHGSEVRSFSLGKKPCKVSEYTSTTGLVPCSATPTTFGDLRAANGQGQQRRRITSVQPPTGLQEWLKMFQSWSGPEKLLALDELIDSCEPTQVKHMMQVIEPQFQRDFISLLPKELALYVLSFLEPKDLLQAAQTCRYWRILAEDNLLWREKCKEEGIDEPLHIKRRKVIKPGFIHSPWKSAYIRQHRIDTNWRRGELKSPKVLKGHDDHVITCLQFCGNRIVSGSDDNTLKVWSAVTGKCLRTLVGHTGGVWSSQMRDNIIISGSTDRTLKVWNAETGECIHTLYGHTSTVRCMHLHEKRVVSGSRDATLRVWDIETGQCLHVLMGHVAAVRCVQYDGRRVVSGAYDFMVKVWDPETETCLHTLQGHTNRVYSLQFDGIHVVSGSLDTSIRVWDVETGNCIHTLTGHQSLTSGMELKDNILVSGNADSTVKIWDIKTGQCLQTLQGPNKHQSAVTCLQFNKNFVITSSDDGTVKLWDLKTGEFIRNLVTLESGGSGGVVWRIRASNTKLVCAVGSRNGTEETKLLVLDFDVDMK
UniProt Q92947: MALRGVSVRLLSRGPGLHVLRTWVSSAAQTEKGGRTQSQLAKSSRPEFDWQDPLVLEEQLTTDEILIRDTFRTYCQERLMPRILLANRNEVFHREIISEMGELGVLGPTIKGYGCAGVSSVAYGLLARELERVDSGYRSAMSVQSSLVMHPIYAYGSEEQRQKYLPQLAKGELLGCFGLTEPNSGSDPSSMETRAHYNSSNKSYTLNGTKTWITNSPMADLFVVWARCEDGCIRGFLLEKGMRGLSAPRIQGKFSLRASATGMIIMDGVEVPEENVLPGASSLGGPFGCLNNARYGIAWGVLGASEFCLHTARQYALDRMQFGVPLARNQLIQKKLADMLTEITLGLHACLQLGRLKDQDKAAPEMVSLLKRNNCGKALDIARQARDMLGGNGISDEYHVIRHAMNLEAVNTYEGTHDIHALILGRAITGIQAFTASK
UniProt Q96CU9: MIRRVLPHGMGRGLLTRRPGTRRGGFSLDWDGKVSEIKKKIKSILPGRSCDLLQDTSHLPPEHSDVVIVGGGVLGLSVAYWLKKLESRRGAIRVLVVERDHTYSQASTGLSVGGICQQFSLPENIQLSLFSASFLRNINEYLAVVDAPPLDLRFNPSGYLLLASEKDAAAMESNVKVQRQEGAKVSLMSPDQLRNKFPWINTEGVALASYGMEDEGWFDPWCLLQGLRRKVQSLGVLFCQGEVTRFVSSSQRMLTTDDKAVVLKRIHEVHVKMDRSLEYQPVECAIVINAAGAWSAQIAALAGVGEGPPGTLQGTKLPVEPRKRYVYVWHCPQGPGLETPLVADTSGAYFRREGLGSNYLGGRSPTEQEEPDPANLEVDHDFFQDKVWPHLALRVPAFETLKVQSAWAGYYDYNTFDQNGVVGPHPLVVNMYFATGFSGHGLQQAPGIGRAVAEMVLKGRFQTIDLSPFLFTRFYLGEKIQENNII
UniProt Q92843: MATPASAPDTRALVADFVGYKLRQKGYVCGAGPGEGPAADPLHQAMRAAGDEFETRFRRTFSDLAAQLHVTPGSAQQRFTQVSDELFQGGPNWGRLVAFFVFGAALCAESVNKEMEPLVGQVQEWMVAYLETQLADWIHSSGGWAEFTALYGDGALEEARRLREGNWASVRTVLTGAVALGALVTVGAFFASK
UniProt Q969W3: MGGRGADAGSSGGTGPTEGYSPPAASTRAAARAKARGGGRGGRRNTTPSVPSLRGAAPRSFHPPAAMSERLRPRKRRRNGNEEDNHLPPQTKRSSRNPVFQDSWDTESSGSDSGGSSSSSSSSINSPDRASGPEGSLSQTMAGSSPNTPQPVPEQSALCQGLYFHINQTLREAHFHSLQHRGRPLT

Some of the results follow. Most values lie at the level of the controls, where differences are scatter.

Compound in this experiment: Cc1nc(Nc2ncc(C(=O)Nc3c(C)cccc3Cl)s2)cc(N2CCN(CCO)CC2)n1 [dasatinib]
As to the kind of experiment: log2 fold change of tryptic peptide abundance, ligand vs vehicle (limited proteolysis) (log2 ratio); higher = more trypsin-susceptible (destabilized). As to conditions: ligand concentration: 5 uM; sample: K562 cleared lysate.
On to “USP9X (peptide sequence: IELFVGGELIDPADDRK, peptide start residue: 932) (UniProt Q93008)”, for which the log2 fold change was found to be 0.164.
For the target “SH3KBP1 (peptide sequence: KPPPPSAPVIK, peptide start residue: 339) (UniProt Q96B97)”, the log2 fold change came out at 1.15.
With “GNPNAT1 (peptide sequence: VEDVVVSDECR, peptide start residue: 119) (UniProt Q96EK6)”, the log2 fold change was -0.0415.
As to “UniProt Q96AV8 (peptide sequence: TPIKNEPIDLSK, peptide start residue: 45)”, the log2 fold change stood at 0.495.
The value for “UniProt Q969H0 (peptide sequence: LDHGSEVR, peptide start residue: 172)” was -0.1; that for “GCDH (peptide sequence: QKYLPQLAK, peptide start residue: 162) (UniProt Q92947)” was 0.759.
As for “FOXRED1 (peptide sequence: VPAFETLK, peptide start residue: 395) (UniProt Q96CU9)”, the log2 fold change was -0.154.
In the case of “BCL2L2 (peptide sequence: ALVADFVGYK, peptide start residue: 12) (UniProt Q92843)”, the log2 fold change is -0.213.
The value for “FAM104A (peptide sequence: NTTPSVPSLR, peptide start residue: 45) (UniProt Q969W3)” was -0.173.
